Test results reported in the supplement of paper PMC11732987, “Enantioselective OTUD7B fragment discovery through chemoproteomics screening and high-throughput optimisation” (Communications Chemistry, 2025).
This is one part of the list. The data scatter; read single values as rough.

Amino acid sequences for entries named in this document (tags omitted). A change or cut given only in a name is not applied to a line headed by its entry. Residues count along the entry.
UniProt O60547: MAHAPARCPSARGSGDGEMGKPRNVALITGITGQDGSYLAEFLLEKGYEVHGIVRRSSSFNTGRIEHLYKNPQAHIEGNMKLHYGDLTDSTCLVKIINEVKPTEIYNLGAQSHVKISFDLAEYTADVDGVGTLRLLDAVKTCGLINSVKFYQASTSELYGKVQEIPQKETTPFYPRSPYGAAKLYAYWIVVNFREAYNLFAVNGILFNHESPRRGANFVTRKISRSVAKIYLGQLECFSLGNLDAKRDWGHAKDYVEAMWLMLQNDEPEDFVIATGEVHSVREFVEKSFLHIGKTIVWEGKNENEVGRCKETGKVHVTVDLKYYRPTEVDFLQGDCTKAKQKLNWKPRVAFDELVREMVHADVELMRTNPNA
UniProt Q92917: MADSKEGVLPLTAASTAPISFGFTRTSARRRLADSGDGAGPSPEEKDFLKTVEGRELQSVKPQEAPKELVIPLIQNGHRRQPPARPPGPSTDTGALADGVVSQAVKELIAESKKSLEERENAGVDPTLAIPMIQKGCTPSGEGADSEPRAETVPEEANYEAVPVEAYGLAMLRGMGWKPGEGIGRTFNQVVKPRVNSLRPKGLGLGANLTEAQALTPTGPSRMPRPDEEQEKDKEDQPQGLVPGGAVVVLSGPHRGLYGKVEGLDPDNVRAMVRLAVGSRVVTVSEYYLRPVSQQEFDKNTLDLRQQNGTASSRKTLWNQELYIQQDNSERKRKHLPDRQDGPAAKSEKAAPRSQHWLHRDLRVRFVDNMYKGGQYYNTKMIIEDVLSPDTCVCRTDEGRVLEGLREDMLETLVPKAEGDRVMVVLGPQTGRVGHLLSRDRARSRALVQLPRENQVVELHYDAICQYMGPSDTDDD
UniProt Q9UKJ3: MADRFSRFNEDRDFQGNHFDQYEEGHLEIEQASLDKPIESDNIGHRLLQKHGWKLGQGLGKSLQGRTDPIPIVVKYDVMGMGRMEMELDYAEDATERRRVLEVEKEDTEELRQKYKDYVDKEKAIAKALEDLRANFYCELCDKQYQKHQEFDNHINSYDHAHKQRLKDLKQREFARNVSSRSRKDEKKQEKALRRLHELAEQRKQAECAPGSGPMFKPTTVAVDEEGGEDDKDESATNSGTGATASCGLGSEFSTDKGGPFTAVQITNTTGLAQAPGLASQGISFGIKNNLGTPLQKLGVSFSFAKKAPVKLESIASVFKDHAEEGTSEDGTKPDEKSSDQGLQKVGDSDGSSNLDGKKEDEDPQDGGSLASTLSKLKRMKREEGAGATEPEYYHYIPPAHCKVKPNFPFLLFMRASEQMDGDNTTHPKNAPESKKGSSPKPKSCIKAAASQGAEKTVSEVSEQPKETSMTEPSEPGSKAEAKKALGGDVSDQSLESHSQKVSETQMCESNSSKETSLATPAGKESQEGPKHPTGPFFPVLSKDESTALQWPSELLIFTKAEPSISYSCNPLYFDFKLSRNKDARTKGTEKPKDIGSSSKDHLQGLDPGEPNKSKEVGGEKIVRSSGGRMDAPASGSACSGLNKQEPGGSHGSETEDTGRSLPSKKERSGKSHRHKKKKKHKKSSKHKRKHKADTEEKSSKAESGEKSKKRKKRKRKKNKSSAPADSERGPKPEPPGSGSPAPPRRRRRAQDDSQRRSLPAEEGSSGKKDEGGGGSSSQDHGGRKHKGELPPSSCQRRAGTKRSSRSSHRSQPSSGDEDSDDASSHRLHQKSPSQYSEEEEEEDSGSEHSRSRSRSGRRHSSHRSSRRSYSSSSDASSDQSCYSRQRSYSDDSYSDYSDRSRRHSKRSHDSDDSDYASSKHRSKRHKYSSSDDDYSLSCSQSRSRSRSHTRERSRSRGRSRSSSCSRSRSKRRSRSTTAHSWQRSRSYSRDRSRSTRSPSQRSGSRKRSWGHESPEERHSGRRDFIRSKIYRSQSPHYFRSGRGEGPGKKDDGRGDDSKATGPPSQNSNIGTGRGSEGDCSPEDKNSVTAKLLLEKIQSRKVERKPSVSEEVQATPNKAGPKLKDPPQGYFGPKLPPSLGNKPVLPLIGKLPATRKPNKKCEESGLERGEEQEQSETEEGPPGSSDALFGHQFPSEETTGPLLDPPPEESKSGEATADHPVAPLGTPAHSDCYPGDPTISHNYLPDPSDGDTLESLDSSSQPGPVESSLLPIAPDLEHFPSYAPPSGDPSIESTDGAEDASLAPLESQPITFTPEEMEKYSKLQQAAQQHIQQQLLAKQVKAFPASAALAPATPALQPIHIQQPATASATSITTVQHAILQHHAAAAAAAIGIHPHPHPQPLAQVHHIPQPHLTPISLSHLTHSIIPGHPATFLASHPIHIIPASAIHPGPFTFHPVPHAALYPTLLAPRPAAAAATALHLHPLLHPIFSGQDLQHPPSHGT
UniProt P49915: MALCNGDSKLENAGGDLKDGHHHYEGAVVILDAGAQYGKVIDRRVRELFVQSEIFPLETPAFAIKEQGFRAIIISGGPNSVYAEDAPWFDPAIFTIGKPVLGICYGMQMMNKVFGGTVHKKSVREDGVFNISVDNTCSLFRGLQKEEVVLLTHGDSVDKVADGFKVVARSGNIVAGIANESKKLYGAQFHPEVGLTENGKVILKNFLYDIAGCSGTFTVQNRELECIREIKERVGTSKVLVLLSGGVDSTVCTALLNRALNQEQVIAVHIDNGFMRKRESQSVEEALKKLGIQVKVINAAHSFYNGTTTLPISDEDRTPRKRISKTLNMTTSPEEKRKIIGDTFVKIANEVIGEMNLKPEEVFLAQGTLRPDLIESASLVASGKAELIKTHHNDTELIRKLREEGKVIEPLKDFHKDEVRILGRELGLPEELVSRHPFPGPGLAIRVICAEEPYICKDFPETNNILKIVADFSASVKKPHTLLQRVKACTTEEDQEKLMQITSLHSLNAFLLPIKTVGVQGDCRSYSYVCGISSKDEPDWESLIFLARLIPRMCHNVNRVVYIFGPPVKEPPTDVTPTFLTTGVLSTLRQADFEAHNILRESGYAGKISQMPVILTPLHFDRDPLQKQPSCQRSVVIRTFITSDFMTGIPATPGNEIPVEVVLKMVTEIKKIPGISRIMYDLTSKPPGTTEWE
UniProt P07203, whole entry, looked up: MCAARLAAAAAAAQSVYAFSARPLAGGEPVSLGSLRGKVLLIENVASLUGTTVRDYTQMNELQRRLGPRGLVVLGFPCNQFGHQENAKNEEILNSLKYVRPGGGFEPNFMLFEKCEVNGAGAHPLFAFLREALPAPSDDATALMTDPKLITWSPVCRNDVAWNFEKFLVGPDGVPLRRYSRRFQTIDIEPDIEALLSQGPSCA
UniProt Q7L5D6: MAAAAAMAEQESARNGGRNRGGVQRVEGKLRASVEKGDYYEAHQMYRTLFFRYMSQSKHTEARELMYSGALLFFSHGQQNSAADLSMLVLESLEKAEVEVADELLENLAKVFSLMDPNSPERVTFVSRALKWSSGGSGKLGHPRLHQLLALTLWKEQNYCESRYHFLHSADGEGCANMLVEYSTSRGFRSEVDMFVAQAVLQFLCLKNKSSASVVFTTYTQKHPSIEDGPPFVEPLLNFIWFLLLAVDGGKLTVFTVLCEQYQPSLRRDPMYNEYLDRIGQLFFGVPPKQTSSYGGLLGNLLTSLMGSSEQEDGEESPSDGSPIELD
UniProt O15228: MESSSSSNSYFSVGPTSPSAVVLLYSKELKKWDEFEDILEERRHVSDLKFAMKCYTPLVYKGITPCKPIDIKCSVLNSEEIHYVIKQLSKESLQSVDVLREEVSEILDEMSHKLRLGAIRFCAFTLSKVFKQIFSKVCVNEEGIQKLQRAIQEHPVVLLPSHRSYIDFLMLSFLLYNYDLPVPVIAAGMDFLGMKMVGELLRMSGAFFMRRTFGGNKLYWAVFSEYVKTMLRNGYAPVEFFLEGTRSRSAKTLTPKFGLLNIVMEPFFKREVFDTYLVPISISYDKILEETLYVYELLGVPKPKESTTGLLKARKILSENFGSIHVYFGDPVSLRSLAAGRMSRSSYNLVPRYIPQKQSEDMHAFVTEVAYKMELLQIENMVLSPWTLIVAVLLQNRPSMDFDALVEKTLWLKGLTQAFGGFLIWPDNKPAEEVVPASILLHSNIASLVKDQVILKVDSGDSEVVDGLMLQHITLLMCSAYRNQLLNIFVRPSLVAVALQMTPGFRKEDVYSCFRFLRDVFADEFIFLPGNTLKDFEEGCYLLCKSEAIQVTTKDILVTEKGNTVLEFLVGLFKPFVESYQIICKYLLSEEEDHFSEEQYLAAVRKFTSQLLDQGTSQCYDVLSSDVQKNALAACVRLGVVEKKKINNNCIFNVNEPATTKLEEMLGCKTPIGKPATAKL
UniProt Q53GS7: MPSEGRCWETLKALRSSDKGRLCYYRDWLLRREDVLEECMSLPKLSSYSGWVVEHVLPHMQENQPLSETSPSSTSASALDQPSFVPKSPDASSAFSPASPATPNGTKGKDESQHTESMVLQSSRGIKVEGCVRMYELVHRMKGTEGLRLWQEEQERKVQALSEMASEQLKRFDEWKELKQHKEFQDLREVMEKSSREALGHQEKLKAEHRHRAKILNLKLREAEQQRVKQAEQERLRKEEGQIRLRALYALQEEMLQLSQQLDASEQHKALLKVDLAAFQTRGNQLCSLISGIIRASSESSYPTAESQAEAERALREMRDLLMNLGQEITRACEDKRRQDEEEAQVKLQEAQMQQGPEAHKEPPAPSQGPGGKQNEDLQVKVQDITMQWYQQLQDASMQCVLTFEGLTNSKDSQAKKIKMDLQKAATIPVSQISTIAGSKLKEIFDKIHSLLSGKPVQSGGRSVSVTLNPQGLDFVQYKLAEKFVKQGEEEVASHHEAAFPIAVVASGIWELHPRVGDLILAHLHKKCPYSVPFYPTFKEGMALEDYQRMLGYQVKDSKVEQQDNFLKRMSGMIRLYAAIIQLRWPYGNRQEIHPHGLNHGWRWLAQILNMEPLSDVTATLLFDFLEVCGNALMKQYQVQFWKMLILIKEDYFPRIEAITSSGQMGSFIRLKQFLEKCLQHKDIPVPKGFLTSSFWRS
UniProt Q9BYB4: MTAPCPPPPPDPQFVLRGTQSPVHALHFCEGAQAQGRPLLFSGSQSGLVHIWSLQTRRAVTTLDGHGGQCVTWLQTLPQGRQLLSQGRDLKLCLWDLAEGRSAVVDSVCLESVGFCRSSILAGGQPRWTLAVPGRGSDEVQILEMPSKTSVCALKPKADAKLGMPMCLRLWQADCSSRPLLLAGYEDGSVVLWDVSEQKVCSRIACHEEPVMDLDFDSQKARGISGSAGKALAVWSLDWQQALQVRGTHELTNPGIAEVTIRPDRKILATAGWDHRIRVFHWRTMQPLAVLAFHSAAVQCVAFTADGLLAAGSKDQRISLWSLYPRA
UniProt Q14691: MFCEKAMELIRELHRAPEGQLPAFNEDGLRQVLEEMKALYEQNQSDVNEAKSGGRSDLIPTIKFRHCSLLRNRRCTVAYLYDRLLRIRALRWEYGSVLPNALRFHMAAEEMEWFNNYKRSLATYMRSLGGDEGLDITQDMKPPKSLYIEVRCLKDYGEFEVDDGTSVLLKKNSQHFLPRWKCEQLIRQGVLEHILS
UniProt Q8TAA5, 123-142: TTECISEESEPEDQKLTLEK
UniProt O75487: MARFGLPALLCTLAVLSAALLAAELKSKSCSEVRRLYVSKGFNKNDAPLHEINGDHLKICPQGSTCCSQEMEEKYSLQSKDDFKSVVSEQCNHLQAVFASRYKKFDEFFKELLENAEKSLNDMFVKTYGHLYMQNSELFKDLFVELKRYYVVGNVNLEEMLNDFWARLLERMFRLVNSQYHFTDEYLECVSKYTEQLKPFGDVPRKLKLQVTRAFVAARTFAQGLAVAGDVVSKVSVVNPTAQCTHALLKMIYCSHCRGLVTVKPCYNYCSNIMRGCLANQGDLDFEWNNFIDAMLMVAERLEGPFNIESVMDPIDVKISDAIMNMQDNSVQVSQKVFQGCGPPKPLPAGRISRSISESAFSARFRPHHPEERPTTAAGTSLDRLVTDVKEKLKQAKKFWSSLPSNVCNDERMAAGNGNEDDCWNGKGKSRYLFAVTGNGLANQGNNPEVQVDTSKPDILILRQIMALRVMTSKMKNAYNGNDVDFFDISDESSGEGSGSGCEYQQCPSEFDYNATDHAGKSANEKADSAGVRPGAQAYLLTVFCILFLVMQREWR
UniProt Q8N9F7: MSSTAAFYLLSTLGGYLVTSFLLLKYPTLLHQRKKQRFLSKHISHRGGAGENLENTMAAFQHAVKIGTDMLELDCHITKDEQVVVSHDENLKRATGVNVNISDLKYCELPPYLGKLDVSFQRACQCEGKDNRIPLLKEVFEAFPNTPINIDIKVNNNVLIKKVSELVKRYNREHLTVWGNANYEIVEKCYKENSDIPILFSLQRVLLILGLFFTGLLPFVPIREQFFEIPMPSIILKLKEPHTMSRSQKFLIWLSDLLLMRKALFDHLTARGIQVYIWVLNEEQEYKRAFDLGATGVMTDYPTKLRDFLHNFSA

Key:
[1] = compound: ClCC(=O)N[C@@H]1CCCc2ccccc12; assay: log2 mean competition ratio of IA-DTB cysteine labelling (DMSO/compound) (log2 ratio); higher = stronger cysteine engagement by compound; conditions: treatment time: 4 h, cell line lysate: HEK293T
Protocol: (§1)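 IA-DTB competitive cysteine chemoproteomics in HEK293T RIPA lysate. Lysates were treated with compound 29 or 30 at 50 or 200 µM for 4 h, then IA-DTB (500 µM, 1 h), trypsin-digested, NeutrAvidin-enriched and analysed by diaPASEF. Competition ratio = intensity DMSO / intensity compound (n=4 treated, n=64 DMSO); binding: mean log2 CR ≥ 1 and p ≤ 0.05 plus QC filters. Target is the cysteine site.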

[2] = compound: ClCC(=O)N[C@H]1CCCc2ccccc12; assay: as above; conditions: treatment time: 4 h, cell line lysate: HEK293T
Protocol: as §1

GMDS C336 (UniProt O60547)
log2 mean competition ratio ([1]; 50 µM): 0.224
log2 mean competition ratio ([1]; 200 µM): 0.133
log2 mean competition ratio ([2]; 50 µM): -0.0927
log2 mean competition ratio ([2]; 200 µM): 0.0642

GOLGB1 C1055 (UniProt Q14789)
log2 mean competition ratio ([1]; 50 µM): -0.13
log2 mean competition ratio ([1]; 200 µM): 0.247
log2 mean competition ratio ([2]; 50 µM): -0.12
log2 mean competition ratio ([2]; 200 µM): 0.461

GPKOW C137 (UniProt Q92917)
log2 mean competition ratio ([1]; 50 µM): 0.21
log2 mean competition ratio ([1]; 200 µM): 0.056
log2 mean competition ratio ([2]; 50 µM): 0.0623
log2 mean competition ratio ([2]; 200 µM): 0.109

GPC3 C65
log2 mean competition ratio ([1]; 50 µM): 0.374
log2 mean competition ratio ([1]; 200 µM): -0.29
log2 mean competition ratio ([2]; 50 µM): -0.227
log2 mean competition ratio ([2]; 200 µM): -0.252

GPATCH8 C639 (UniProt Q9UKJ3)
log2 mean competition ratio ([1]; 50 µM): 0.0363
log2 mean competition ratio ([1]; 200 µM): -0.0372
log2 mean competition ratio ([2]; 50 µM): -0.208
log2 mean competition ratio ([2]; 200 µM): 0.0268

GBF1 C685 (UniProt Q92538)
log2 mean competition ratio ([1]; 50 µM): 0.156
log2 mean competition ratio ([1]; 200 µM): 0.251
log2 mean competition ratio ([2]; 50 µM): -0.104
log2 mean competition ratio ([2]; 200 µM): 0.451

GIGYF1 C514 (UniProt O75420)
log2 mean competition ratio ([1]; 50 µM): 0.175
log2 mean competition ratio ([1]; 200 µM): 0.00737
log2 mean competition ratio ([2]; 50 µM): -0.328
log2 mean competition ratio ([2]; 200 µM): 0.0377

GMPS C4 (UniProt P49915)
log2 mean competition ratio ([1]; 50 µM): -0.334
log2 mean competition ratio ([1]; 200 µM): -0.15
log2 mean competition ratio ([2]; 50 µM): 0.292
log2 mean competition ratio ([2]; 200 µM): 0.165

GPS1 C175
log2 mean competition ratio ([1]; 50 µM): -0.0837
log2 mean competition ratio ([1]; 200 µM): 0.524
log2 mean competition ratio ([2]; 50 µM): -0.322
log2 mean competition ratio ([2]; 200 µM): 0.327

GPX1 C156 (UniProt P07203)
log2 mean competition ratio ([1]; 50 µM): 0.00555
log2 mean competition ratio ([1]; 200 µM): -0.422
log2 mean competition ratio ([2]; 50 µM): -0.0423
log2 mean competition ratio ([2]; 200 µM): -0.475

GET4 C160 (UniProt Q7L5D6)
log2 mean competition ratio ([1]; 50 µM): 0.0272
log2 mean competition ratio ([1]; 200 µM): -0.305
log2 mean competition ratio ([2]; 50 µM): -0.0496
log2 mean competition ratio ([2]; 200 µM): -0.265

GNPAT C66 (UniProt O15228)
log2 mean competition ratio ([1]; 50 µM): 0.13
log2 mean competition ratio ([1]; 200 µM): -0.12
log2 mean competition ratio ([2]; 50 µM): -0.112
log2 mean competition ratio ([2]; 200 µM): -0.19

GSK3A C262 (UniProt P49840)
log2 mean competition ratio ([1]; 50 µM): -0.224
log2 mean competition ratio ([1]; 200 µM): -0.365
log2 mean competition ratio ([2]; 50 µM): 0.763
log2 mean competition ratio ([2]; 200 µM): 0.0525

GRK6 C71 (UniProt P43250)
log2 mean competition ratio ([1]; 50 µM): 0.0637
log2 mean competition ratio ([1]; 200 µM): 0.0601
log2 mean competition ratio ([2]; 50 µM): -0.515
log2 mean competition ratio ([2]; 200 µM): 0.0285

GLE1 C39 (UniProt Q53GS7)
log2 mean competition ratio ([1]; 50 µM): -0.152
log2 mean competition ratio ([1]; 200 µM): -0.187
log2 mean competition ratio ([2]; 50 µM): -0.222
log2 mean competition ratio ([2]; 200 µM): -0.329

GNB1L C206 (UniProt Q9BYB4)
log2 mean competition ratio ([1]; 50 µM): 0.387
log2 mean competition ratio ([1]; 200 µM): -0.191
log2 mean competition ratio ([2]; 50 µM): 0.05
log2 mean competition ratio ([2]; 200 µM): -0.0192

GPX4 C134 (UniProt P36969)
log2 mean competition ratio ([1]; 50 µM): 0.0815
log2 mean competition ratio ([1]; 200 µM): -0.117
log2 mean competition ratio ([2]; 50 µM): -0.772
log2 mean competition ratio ([2]; 200 µM): -0.183

GPRIN1 C658 (UniProt Q7Z2K8)
log2 mean competition ratio ([1]; 50 µM): -0.00376
log2 mean competition ratio ([1]; 200 µM): -0.122
log2 mean competition ratio ([2]; 50 µM): 0.161
log2 mean competition ratio ([2]; 200 µM): 0.00946

GPHN C26 (UniProt Q9NQX3)
log2 mean competition ratio ([1]; 50 µM): 0.352
log2 mean competition ratio ([1]; 200 µM): 0.0232
log2 mean competition ratio ([2]; 50 µM): 0.277
log2 mean competition ratio ([2]; 200 µM): 0.209

GINS1 C75 (UniProt Q14691)
log2 mean competition ratio ([1]; 50 µM): 0.509
log2 mean competition ratio ([1]; 200 µM): 0.273
log2 mean competition ratio ([2]; 50 µM): 0.194
log2 mean competition ratio ([2]; 200 µM): 0.194

GRPEL2 C126 (UniProt Q8TAA5)
log2 mean competition ratio ([1]; 50 µM): -0.353
log2 mean competition ratio ([1]; 200 µM): -0.0748
log2 mean competition ratio ([2]; 50 µM): -0.0128
log2 mean competition ratio ([2]; 200 µM): -0.22

GNAZ C66
log2 mean competition ratio ([1]; 50 µM): -1.16
log2 mean competition ratio ([1]; 200 µM): 0.577
log2 mean competition ratio ([2]; 50 µM): 0.000578
log2 mean competition ratio ([2]; 200 µM): 0.211

GPC4 C408 (UniProt O75487)
log2 mean competition ratio ([1]; 50 µM): 0.000537
log2 mean competition ratio ([1]; 200 µM): 0.0235
log2 mean competition ratio ([2]; 50 µM): 0.422
log2 mean competition ratio ([2]; 200 µM): 0.0608

GDPD1 C107 (UniProt Q8N9F7)
log2 mean competition ratio ([1]; 50 µM): 0.328
log2 mean competition ratio ([1]; 200 µM): -0.177
log2 mean competition ratio ([2]; 50 µM): -0.323
log2 mean competition ratio ([2]; 200 µM): -0.262
